Where a name gives a salt, the structure may show the parent alone. Read-outs that look alike come from different tables or passages of the source. Hit rate of the full screen: of about 3,300 compounds, about 60 (2%) showed an effect of 50% or more. This is one part of the list.
Test system: HCoV-OC43
Design: species or system RD; HTS, protection from HCoV-OC43 induced cell death, luminescent cell viability (CellCounting-Lite 2.0), inhibition rate
Conditions: 24 h post infection, 1 h compound pre-incubation, 10 µM, inhibitor

Row | Structure (SMILES) | OC43 Inhibition rate | OC43 Inhibition rate (OC43 Inhibition rate, 24 h)
1 | CN1c2c(nc(N)[nH]c2=O)NCC1CNc1ccc(C(=O)N[C@@H](CCC(=O)O)C(=O)O)cc1 (stereo partly shown) [5-Methyltetrahydrofolic acid] | 1.1% | 
2 | OC[C@@H](O)[C@@H](O)CO [meso-Erythritol] | 1% | 
3 | CC[C@H]1OC(=O)C[C@@H](O)[C@H](C)[C@@H](O[C@@H]2O[C@H](C)[C@@H](O[C@H]3C[C@@](C)(O)[C@@H](O)[C@H](C)O3)[C@H](N(C)C)[C@H]2O)[C@@H](CC=O)C[C@@H](C)C(=O)/C=C/C(C)=C/[C@@H]1CO[C@@H]1O[C@H](C)[C@@H](O)[C@@H](OC)[C@H]1OC [Tylosin (tartrate)] |  | 45.9%
4 | NC(CO)C(=O)O (racemic) [DL-Serine] | -0.6% | 
5 | CCCCCCCCCCCCCCCCCC(=O)O [Stearic acid] | -0.8% | 
6 | CC(=O)OC/C=C(C)/C=C/C=C(C)/C=C/C1=C(C)CCCC1(C)C [Retinyl acetate] | 0.3% | 
7 | NCCCC[C@H](N)C(=O)O [L-Lysine] |  | -0.1%
8 | O=c1c(O)c(-c2cc(O)c(O)c(O)c2)oc2cc(O)ccc12 [Robinetin] | 0.2% | 
9 | COc1ccc(-c2oc3c(CC=C(C)C)c(O)cc(O)c3c(=O)c2O[C@@H]2O[C@@H](C)[C@H](O)[C@@H](O)[C@H]2O)cc1 [Baohuoside I] | 70.2% | 
10 | OCC1(O)COc2cc(O)ccc2-c2cc(O)c(O)cc2C1 (stereo not shown) [Protosappanin B] | 0.6% | 
11 | Nc1[nH]cnc2ncnc1-2 [Adenine (hemisulfate)] |  | 0.6%
12 | CC(=O)O[C@@H](C[C@@H](C)C1=C2C[C@H](O)[C@H]3[C@@]4(C)CCC(=O)C(C)(C)[C@@H]4CC[C@]3(C)[C@@]2(C)CC1)[C@H]1OC1(C)C [Alisol B 23-acetate] | 0.5% | 
13 | NCc1ccccc1O [o-Hydroxybenzylamine] | 0.7% | 
14 | O=C(O)Cc1ccccc1O [2-Hydroxyphenylacetic acid] | 1.3% | 
15 | COc1cc(OC)c2c(=O)c(OC)c(-c3ccc(OC)c(OC)c3)oc2c1 [3,5,7,3′,4′-Pentamethoxyflavone] | 2.1% | 
16 | C=C[C@]1(C)C=C2CC[C@H]3[C@@](C)(CCC[C@@]3(C)C(=O)O)[C@@H]2CC1 [Continentalic acid] | -1.2% | 
17 | CC(C)=C1C/C=C(\C)CC/C=C(\C)CC1=O [Germacrone] | 1.7% | 
18 | O=c1c(O[C@@H]2O[C@H](CO)[C@H](O)[C@H](O)[C@H]2O[C@@H]2O[C@H](CO)[C@@H](O)[C@H](O)[C@H]2O)c(-c2ccc(O)cc2)oc2cc(O)cc(O)c12 [Panasenoside] | 0.4% | 
19 | COc1ccc(/C=C\c2cc(OC)c(OC)c(OC)c2)cc1OP(=O)(O)O [Fosbretabulin (disodium)] | -0.2% | 
20 | CCCCCCC/C=C/C(=O)CCc1ccc(O)c(OC)c1 [[8]-Shogaol] | 0.1% | 
21 | CC1=C(C=O)C(C)(C)CC=C1 [Safranal] | 1% | 

Row | Structure (SMILES) | OC43 Inhibition rate | OC43 Inhibition rate (OC43 Inhibition rate, 24 h)
22 | C[C@@H]1O[C@@H](OC[C@H]2O[C@@H](Oc3c(-c4ccc(O)cc4)oc4cc(O)cc(O)c4c3=O)[C@H](O)[C@@H](O)[C@H]2O)[C@H](O)[C@H](O)[C@H]1O [Biorobin] | 0.5% | 
23 | C[C@@H]1O[C@@H](O[C@@H]2[C@@H](O)[C@H](OCCc3ccc(O)c(O)c3)O[C@H](CO)[C@H]2OC(=O)/C=C/c2ccc(O)c(O)c2)[C@H](O)[C@H](O)[C@H]1O [Verbascoside] | 0.3% | 
24 | CC(C)(CO)[C@@H](O)C(=O)NCCCO [D-Panthenol] | 1.4% | 
25 | O=C(O[C@@H]1Cc2c(O)cc(O)cc2O[C@@H]1c1cc(O)c(O)c(O)c1)c1cc(O)c(O)c(O)c1 [(-)-Epigallocatechin Gallate] | -0.4% | 
26 | CC[C@@]1(O)C(=O)OCc2c1cc1n(c2=O)Cc2cc3cc(OC)ccc3nc2-1 [10-Methoxycamptothecin] | -2.1% | 
27 | C/C1=C\C[C@]2(C(C)C)CC[C@@](C)(O2)[C@@H](O)CC/C(C)=C/CC1 [Incensole] | 1.2% | 
28 | N[C@@H](CCS)C(=O)O [L-Homocysteine] | 2.1% | 
29 | C=CCc1ccc(O)c(-c2ccc(O)c(CC=C)c2)c1 [Honokiol] | 32.2% | 
30 | COc1cc([C@@H]2c3cc4c(cc3[C@H](O)[C@H]3COC(=O)[C@H]23)OCO4)cc(OC)c1OC [Podofilox] | -3.9% | 
31 | COc1cc(OC)c(C(=O)O)cc1OC [2,4,5-Trimethoxybenzoic acid] | -0.1% | 
32 | CCOC(=O)/C=C/c1ccc(O)c(OC)c1 [Ethyl ferulate] | 1.1% | 
33 | O=c1c(-c2ccc(O)cc2)coc2cc(O)cc(O)c12 [Genistein] | 6.8% | 
34 | N[C@H](Cc1ccccc1)C(=O)O [D-Phenylalanine] | -0.2% | 
35 | CO[C@H]1[C@H](O)[C@H](O[C@H]2CC[C@@]3(C)[C@H](CC[C@@H]4[C@@H]3CC[C@]3(C)[C@@H](C5=CC(=O)OC5)CC[C@]43O)C2)O[C@@H](C)[C@@H]1O [Neriifolin] | -1.8% | 
36 | CO[C@@H]1[C@H](O)[C@@H](CO)O[C@H]1n1cnc2c(N)ncnc21 [2'-O-Methyladenosine] | 11.9% | 
37 | CC(=O)OC[C@H](Cc1ccccc1)NC(=O)[C@H](Cc1ccccc1)NC(=O)c1ccccc1 [Aurantiamide acetate] | 0.3% | 
38 | Nc1nc2c([nH]c(=O)n2[C@H]2C[C@H](O)[C@@H](CO)O2)c(=O)[nH]1 [8-Hydroxy-2'-deoxyguanosine] | -0.5% | 
39 | COc1cc(C=O)ccc1O [Vanillin] | 0.9% | 
40 | COc1cc(COC(=O)CCCC/C=C/C(C)C)ccc1O [Capsiate] | -0.6% | 
41 | CNc1nc2c(ncn2[C@@H]2O[C@H](CO)[C@@H](O)[C@H]2O)c(=O)[nH]1 [N2-Methylguanosine] | -0.3% | 
42 | O=C1C=C2C=C[C@@H](O)[C@H](O)[C@H]2O1 [Griffonilide] | -0.1% | 

Row | Structure (SMILES) | OC43 Inhibition rate | OC43 Inhibition rate (OC43 Inhibition rate, 24 h)
43 | COc1cc2c(=O)c(-c3ccc(O)cc3)coc2cc1O[C@@H]1O[C@H](CO)[C@@H](O)[C@H](O)[C@H]1O [Glycitin] | 1.5% | 
44 | COc1cc(/C=C/C(=O)OC[C@H]2O[C@@H](O[C@@H]3[C@@H](O)[C@H](O)[C@@H](CO)O[C@H]3c3c(OC)cc4oc(-c5ccc(O)cc5)cc(=O)c4c3O)[C@H](O)[C@@H](O)[C@@H]2O)ccc1O [6‴-Feruloylspinosin] | 0.6% | 
45 | C=C1CC[C@@H]2[C@](C)(CO)[C@H](O)CC[C@@]2(C)[C@@H]1/C=C/C1=CCOC1=O [14-Deoxy-11,12-didehydroandrographolide] | -1.3% | 
46 | COc1ccc(/C=C/c2cc(OC)cc(=O)o2)cc1 [Yangonin] | 0.5% | 
47 | COc1ccc(/C=C/C(=O)O)cc1OC [3,4-Dimethoxycinnamic acid] |  | 1.2%
48 | c1cncnc1 [Pyrimidine] | -0.5% | 
49 | CC(=O)c1cc(O)ccc1O [2,5-Dihydroxyacetophenone] | 0% | 
50 | COc1ccc2cc3[n+](cc2c1OC)CCc1cc(O)c(O)cc1-3 [Demethyleneberberine] | -1% | 
51 | O=C1C[C@@H](c2cc(O)c(O)c(O[C@@H]3O[C@H](CO)[C@@H](O)[C@H](O)[C@H]3O)c2)Oc2cc(O)cc(O)c21 [Plantagoside] | 0.6% | 
52 | C[C@@H]1CC[C@H]2[C@@H](C)C(=O)O[C@@H]3O[C@@]4(C)CC[C@@H]1[C@]32OO4 [Artemisinin] | 0.2% | 
53 | O=C1O[C@H]2[C@@H]3OC(=O)c4cc(O)c(O)c(O)c4-c4c(cc(O)c(O)c4O)C(=O)OC[C@H]2O[C@@H](OC(=O)c2cc(O)c(O)c(O)c2)[C@@H]3OC(=O)c2cc(O)c(O)c3c2[C@@H]2C1=CC(=O)[C@](O)(O3)C2(O)O [Geraniin] | 1.3% | 
54 | COc1cccc(OC)c1C(=O)O [2,6-Dimethoxybenzoic acid] | 0.1% | 
55 | COc1cc(-c2[o+]c3cc(O)cc(O)c3cc2O)cc(O)c1O [Petunidin (chloride)] | 1.2% | 
56 | COc1cc(CCC(=O)CC(O)CCc2ccc(O)c(OC)c2)ccc1O (stereo not shown) [Hexahydrocurcumin] | 6.3% | 
57 | CO[C@H]1/C=C/O[C@@]2(C)Oc3c(C)c(O)c4c(c3C2=O)C(=O)C=C(NC(=O)/C(C)=C\C=C\[C@H](C)[C@H](O)[C@@H](C)[C@@H](O)[C@@H](C)[C@H](OC(C)=O)[C@@H]1C)C4=O [Rifamycin S] | 3.2% | 
58 | O=C(O)[C@H](O)[C@@H](O)CO [Calcium L-Threonate] | 1.3% | 
59 | CO[C@H]1C[C@@H]2CC[C@@H](C)[C@@](O)(O2)C(=O)C(=O)N2CCCC[C@H]2C(=O)O[C@H]([C@H](C)C[C@@H]2CC[C@@H](O)[C@H](OC)C2)CC(=O)[C@H](C)/C=C(\C)[C@@H](O)[C@@H](OC)C(=O)[C@H](C)C[C@H](C)/C=C/C=C/C=C/1C [Rapamycin] | -0.1% | 
60 | COc1ccc(-c2oc3c(CC=C(C)C)c(O[C@@H]4O[C@H](CO)[C@@H](O)[C@H](O)[C@H]4O)cc(O)c3c(=O)c2O[C@@H]2O[C@@H](C)[C@H](O)[C@@H](O[C@@H]3O[C@H](CO)[C@@H](O)[C@H](O)[C@H]3O)[C@H]2O)cc1 [Epimedin A1] | 3.6% | 
61 | CC(C)C[C@H](NC(=O)[C@@H](O)[C@H](N)Cc1ccccc1)C(=O)O [Bestatin (hydrochloride)] |  | 0.4%

A different layout for some results above.
Row	Structure (SMILES)	OC43 Inhibition rate	OC43 Inhibition rate (OC43 Inhibition rate, 24 h)
5	CCCCCCCCCCCCCCCCCC(=O)O [Stearic acid]	-0.8%	
6	CC(=O)OC/C=C(C)/C=C/C=C(C)/C=C/C1=C(C)CCCC1(C)C [Retinyl acetate]	0.3%	
